These are yes or no findings as the source states them, for the method shown. In cells and extracts the contact can be indirect. Here binding means that the protein was enriched with, or labelled near, the bait; the list need not be complete. Tags and fused reporters may be left off the sequences shown.

Sequences of proteins named here, by UniProt entry; tags and fusion partners are left off.
UniProt P62715: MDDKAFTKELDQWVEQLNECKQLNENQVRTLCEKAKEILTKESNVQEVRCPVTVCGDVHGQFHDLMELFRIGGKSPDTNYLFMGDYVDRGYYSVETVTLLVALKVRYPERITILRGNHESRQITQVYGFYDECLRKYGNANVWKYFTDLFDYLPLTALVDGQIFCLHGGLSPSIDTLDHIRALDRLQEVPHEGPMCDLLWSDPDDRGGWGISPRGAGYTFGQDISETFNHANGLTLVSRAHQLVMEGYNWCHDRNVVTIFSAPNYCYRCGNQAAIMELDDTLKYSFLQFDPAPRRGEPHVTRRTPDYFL
UniProt P63087: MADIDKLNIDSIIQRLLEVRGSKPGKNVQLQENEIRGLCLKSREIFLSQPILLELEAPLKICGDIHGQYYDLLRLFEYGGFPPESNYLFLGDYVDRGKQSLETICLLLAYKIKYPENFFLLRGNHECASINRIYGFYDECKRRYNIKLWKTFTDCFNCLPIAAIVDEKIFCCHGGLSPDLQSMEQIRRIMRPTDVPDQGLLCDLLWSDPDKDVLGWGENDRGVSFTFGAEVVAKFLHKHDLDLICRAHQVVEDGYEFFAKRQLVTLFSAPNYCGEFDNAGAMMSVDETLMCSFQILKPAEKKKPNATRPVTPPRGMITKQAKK

The target of this experiment is T1, SH3RF2-3× flag (mouse (endogenous in striatum of knock-in mice)) (UniProt Q8BZT2).
T1 sequence: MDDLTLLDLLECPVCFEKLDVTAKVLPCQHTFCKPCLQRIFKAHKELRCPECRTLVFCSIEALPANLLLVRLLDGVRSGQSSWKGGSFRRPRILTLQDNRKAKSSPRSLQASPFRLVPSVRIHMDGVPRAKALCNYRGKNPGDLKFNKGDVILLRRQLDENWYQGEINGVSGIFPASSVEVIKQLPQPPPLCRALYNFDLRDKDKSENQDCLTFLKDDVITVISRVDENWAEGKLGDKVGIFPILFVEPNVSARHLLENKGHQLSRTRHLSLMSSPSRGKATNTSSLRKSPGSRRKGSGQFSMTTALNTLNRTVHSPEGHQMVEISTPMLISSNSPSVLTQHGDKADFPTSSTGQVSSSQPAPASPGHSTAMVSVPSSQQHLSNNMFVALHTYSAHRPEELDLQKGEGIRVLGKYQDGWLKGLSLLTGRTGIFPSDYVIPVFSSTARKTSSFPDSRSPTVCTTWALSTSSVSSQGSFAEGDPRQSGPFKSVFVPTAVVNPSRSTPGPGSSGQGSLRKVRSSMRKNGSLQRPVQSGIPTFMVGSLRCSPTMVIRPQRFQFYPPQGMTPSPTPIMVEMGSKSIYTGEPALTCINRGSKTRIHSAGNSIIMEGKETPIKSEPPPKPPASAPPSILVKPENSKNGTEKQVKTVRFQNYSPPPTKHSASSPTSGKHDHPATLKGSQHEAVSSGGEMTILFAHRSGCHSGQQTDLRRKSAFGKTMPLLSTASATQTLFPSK
Description: affinity purification with mass spectrometry; striatal tissue of P42 Sh3rf2-3× flag male mice against WT littermates; 200 μg of proteins with 20 μL Anti-FLAG M2 affinity gel at 4 °C overnight; SDS-PAGE, in-gel trypsin digest, LTQ Orbitrap Elite; hits unique to the knock-in or with PSM fold change ≥ 2.
Consider “PPP2CB (PP2A) (from UniProt P62715 1-309) (enzyme)”, for which the binding entry was “binds”.

On to “PP1 catalytic subunit gamma (PPP1CC) (from UniProt P63087 1-323) (enzyme)”, for which the binding result is “binds”.

For the substance “PKC (mouse (endogenous in striatum)) (enzyme)”, the binding result is recorded as “binds”.

The values are drawn from paper PMC12485048.
